The results in this text go back to the supplement of paper PMC6821926, “Diaminoquinazoline MMV675968 from Pathogen Box inhibits Acinetobacter baumannii growth through targeting of dihydrofolate reductase” (Scientific Reports, 2019).

For assay [1], the system named is Acinetobacter baumannii Mahidol. Briefly: percent growth relative to DMSO-treated control; higher = less growth inhibition. The settings on record: 10 µM; 18 h.
The test system of assay [2] is Acinetobacter baumannii Naval-81. The description is as above. The settings on record: 10 µM; 18 h.

± gives the uncertainty stated by the source. The list shows a part of the results.

As for `CS(=O)(=O)N1CCC(Cn2nc(Cc3cccc4ccccc34)c3c(N)ncnc32)CC1`, the figures for the percent growth in assay [1] and in assay [2] were 92.8 ± 8.1% and 89.5 ± 14%, respectively.
For `Cc1cc(C)n2nc(C(=O)Nc3cc(C(F)(F)F)ccc3N3CCOCC3)nc2n1`, in that order: 61.4 ± 31% and 102 ± 30%.
On the same counts, the results for `CCN(CC)CCCN1CCN(C(=O)c2cccc(-c3noc(C(F)(F)F)n3)c2)CC1` are 86 ± 12% and 101 ± 12%.
On the same counts, the results for `CCCn1nnc(NC(=O)COc2ccc(C3CCCCC3)cc2)n1` are 105 ± 23% and 80.5 ± 33%.
Take `O=C(Nc1nc(-c2ccccn2)cs1)C1CC1c1ccccc1F` (stereo unspecified): the percent growth was found to be 72.8 ± 28% in assay [1] and 89.36 ± 0.4% in assay [2].
For the molecule `CN1CCN(c2nccc3[nH]c(-c4cccc(F)c4)cc23)CC1`, the results for the percent growth in assay [1] and in assay [2] were 96.7 ± 14% and 80 ± 7%, respectively.
On the same counts, the results for `CC(=O)NCC1CN(c2ccc(-c3ccc(CO)cc3)c(F)c2)C(=O)O1` (stereo unspecified) are 88.1 ± 6.6% and 94.9 ± 12%.
On to `Nc1ncnc2c1c(-c1cnc3ccccc3c1)nn2CC1CCNCC1`, for which the percent growth in assay [1] worked out at 97.2 ± 4.6%; in assay [2] it was 94.5 ± 26%.
Regarding `CC(C)(C)c1cc(C(=O)Nc2cccnc2)cc(C(=O)Nc2cccnc2)c1`, the percent growth was 99.9 ± 41% in assay [1] and 78.8 ± 12% in assay [2].
For `Cc1nn(C(=O)Nc2cccc(C(F)(F)F)c2)c(C)c1Sc1ncccn1`, in that order: 97.5 ± 11% and 73.7 ± 24%.
For `Cc1cc(C(=O)Nc2cnn(Cc3ccc(Cl)cc3Cl)c2)no1`, in that order: 117 ± 25% and 70.1 ± 27%.
For `Cc1ncc(-c2ccnc(Nc3ccc(S(C)(=O)=O)cc3)n2)n1C(C)C`, in that order: 100 ± 43% and 80.5 ± 12%.
Consider `Clc1ccc(Cl)c(CO[C@H]2CCCC[C@@H]2n2ccnc2)c1`, for which the percent growth in assay [1] amounted to 92.8 ± 6.9%; in assay [2], 109 ± 17%.
As for `COc1cccc(-c2nc3c(N4CCCC4)cccc3n2CC2CCCN2)n1` (stereo unspecified), the values for the percent growth in assay [1] and in assay [2] were 89 ± 9.1% and 89.7 ± 17%, respectively.
As to `CCCCc1ccc(C(=O)Nc2nccc3ccccc23)nc1`, the percent growth in assay [1] was determined as 81.8 ± 22%; in assay [2] it was 95.4 ± 2.4%.
For `O=C(NCc1ccoc1)N1CCN(Cc2ccc3c(c2)OCO3)CC1`, in that order: 89 ± 39% and 81.6 ± 5.9%.
For `N#Cc1nc(-c2ccccc2)oc1S(=O)(=O)c1ccc(Cl)cc1`, in that order: 109 ± 4.8% and 83.3 ± 4%.
In the case of `O=C(NC1CC1)c1ccc(N2CCOc3ccc(Cl)cc32)s1`, the results for the percent growth in assay [1] and in assay [2] were 42.9 ± 45% and 97.7 ± 23%, respectively.
On the same counts, the results for `Cc1cc(C)cc(COc2ccc3c(C)c(CCC(=O)O)c(=O)oc3c2C)c1` are 92 ± 5.3% and 100 ± 13%.
For `COc1ccc(CCN2CCC(NCc3cccc(N(C)C)c3)CC2)cc1`, in that order: 94.6 ± 5.5% and 86 ± 4.8%.
On the same counts, the results for `Nc1ncc(-c2ccc(C(F)(F)F)nc2)cc1-c1ccc(C(F)(F)F)nc1` are 110 ± 17% and 82.5 ± 2.9%.
For `Cn1c(=O)c2c(S(C)(=O)=O)snc2n(C)c1=O`, the percent growth is 77.3 ± 21% in assay [1] and 94.4 ± 10% in assay [2].
Consider `COc1cccc(CC(=O)N2CCC(n3c(C)nc4ccc(F)cc43)CC2)c1`, for which the percent growth in assay [1] came to 92.5 ± 3.3%; in assay [2] it was 81.3 ± 17%.
On the same counts, the results for `COc1ccc(-c2nn(C(C)C)c3ncnc(N)c23)cc1OC` are 91 ± 9.2% and 100 ± 15%.
For `COC(=O)c1cccc2oc(-c3cccc(OC)c3NC(=O)c3cc(-c4ccccc4)on3)nc12`, in that order: 93.4 ± 6% and 94.7 ± 17%.
On the same counts, the results for `O=C(c1ccc(F)cc1)N(CCNc1ccccc1)c1ccccc1` are 96.9 ± 9.2% and 89.8 ± 6.4%.
With `O=C(c1cc2ccccc2o1)N1CCN(Cc2ccc3c(c2)OCO3)CC1`, the results for the percent growth in assay [1] and in assay [2] were 107 ± 15% and 78.1 ± 14%, respectively.
For `O=C(c1[nH]nc2c1CCCC2)N1CCN(Cc2ccc3c(c2)OCO3)CC1`, the percent growth stood at 83.9 ± 40% in assay [1] and 84.5 ± 10% in assay [2].
On the same counts, the results for `Cc1cc(NCCc2ccccc2)nc(NC(=N)Nc2ccc(Cl)cc2)n1` are 86.9 ± 12% and 87.5 ± 18%.
On the same counts, the results for `COc1ccccc1OCCCCn1c(C2CC2)nc2ccccc21` are 105 ± 18% and 80 ± 16%.
On the same counts, the results for `COc1ccc(-c2nnc3ccc(-c4cccc(C(C)C)c4)cn23)cc1OC` are 92.2 ± 14% and 101 ± 7.6%.
As for `O=C(OCc1ccccc1)N1CCC(c2cc(-c3ccncc3)c(-c3ccc(F)cc3)[nH]2)CC1`, the percent growth is 81.6 ± 6.3% in assay [1] and 91.3 ± 1% in assay [2].
Regarding `c1csc(-c2cnc3sc(NCC4CCOCC4)nn23)c1`, the values for the percent growth in assay [1] and in assay [2] were 96 ± 15% and 86.8 ± 16%, respectively.
